# From the supplement of paper PMC6411743
# By UniProt entry, the sequences of proteins in these tests, tags left out. Where a name states a change or a piece, a line headed by the entry shows the natural chain unless it says otherwise.
# UniProt Q7L1V2: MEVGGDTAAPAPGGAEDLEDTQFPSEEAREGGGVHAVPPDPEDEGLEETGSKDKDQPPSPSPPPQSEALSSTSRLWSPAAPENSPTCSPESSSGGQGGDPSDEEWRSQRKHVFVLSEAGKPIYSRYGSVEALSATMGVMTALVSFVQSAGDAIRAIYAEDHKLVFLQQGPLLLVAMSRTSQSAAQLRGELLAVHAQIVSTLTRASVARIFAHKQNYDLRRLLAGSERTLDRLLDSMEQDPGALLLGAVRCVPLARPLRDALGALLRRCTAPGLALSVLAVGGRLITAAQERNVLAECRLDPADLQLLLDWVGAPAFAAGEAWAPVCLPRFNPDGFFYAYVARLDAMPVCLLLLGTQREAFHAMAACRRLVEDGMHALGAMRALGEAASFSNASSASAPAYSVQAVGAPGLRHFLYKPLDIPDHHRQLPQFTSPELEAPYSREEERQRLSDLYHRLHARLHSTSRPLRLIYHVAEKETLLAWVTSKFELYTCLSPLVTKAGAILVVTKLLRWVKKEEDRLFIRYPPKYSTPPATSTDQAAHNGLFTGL
# UniProt Q7LBC6: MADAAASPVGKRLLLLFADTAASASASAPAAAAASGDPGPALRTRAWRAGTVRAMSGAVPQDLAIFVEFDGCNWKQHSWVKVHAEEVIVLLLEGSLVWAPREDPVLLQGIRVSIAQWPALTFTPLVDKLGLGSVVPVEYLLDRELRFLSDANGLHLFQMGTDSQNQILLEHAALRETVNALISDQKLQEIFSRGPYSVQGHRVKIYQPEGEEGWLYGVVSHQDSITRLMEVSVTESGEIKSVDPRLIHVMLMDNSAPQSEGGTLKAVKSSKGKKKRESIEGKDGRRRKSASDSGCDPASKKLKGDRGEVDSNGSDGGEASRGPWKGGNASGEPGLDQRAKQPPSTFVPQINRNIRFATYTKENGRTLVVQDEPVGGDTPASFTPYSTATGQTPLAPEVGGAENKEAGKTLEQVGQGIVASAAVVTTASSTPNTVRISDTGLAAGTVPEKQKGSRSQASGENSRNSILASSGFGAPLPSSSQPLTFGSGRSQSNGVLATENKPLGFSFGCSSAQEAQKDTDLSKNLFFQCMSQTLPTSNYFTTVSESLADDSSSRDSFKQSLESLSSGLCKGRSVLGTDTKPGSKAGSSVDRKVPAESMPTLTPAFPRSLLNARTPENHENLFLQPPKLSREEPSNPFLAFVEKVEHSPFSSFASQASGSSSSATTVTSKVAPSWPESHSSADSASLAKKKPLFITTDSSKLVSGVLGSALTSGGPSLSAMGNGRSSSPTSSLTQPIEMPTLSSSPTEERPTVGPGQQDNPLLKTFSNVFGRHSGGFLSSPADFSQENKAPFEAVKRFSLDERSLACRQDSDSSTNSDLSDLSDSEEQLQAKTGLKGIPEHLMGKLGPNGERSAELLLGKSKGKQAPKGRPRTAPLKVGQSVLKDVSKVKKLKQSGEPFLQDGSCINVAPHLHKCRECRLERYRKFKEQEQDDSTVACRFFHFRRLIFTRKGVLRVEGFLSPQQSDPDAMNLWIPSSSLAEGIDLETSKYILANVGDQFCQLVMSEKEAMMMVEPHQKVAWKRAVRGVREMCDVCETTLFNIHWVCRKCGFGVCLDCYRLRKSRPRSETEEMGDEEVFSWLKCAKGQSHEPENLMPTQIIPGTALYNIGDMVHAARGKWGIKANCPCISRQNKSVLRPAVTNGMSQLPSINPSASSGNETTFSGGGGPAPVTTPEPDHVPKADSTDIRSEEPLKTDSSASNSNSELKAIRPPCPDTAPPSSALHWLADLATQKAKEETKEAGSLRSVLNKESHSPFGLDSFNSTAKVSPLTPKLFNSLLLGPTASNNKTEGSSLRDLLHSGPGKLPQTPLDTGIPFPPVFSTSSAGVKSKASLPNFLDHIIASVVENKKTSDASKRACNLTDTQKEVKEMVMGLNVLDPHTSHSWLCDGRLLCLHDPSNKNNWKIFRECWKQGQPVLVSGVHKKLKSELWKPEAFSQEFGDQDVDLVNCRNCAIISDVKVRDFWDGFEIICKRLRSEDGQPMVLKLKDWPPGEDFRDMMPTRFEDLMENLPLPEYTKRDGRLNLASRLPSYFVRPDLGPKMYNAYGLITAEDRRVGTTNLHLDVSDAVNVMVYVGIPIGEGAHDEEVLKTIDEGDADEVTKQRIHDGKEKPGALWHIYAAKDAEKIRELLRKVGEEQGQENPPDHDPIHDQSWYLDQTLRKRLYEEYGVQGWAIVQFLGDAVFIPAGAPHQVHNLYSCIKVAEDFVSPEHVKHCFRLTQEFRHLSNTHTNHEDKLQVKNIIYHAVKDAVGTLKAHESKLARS
# UniProt Q7Z7L1: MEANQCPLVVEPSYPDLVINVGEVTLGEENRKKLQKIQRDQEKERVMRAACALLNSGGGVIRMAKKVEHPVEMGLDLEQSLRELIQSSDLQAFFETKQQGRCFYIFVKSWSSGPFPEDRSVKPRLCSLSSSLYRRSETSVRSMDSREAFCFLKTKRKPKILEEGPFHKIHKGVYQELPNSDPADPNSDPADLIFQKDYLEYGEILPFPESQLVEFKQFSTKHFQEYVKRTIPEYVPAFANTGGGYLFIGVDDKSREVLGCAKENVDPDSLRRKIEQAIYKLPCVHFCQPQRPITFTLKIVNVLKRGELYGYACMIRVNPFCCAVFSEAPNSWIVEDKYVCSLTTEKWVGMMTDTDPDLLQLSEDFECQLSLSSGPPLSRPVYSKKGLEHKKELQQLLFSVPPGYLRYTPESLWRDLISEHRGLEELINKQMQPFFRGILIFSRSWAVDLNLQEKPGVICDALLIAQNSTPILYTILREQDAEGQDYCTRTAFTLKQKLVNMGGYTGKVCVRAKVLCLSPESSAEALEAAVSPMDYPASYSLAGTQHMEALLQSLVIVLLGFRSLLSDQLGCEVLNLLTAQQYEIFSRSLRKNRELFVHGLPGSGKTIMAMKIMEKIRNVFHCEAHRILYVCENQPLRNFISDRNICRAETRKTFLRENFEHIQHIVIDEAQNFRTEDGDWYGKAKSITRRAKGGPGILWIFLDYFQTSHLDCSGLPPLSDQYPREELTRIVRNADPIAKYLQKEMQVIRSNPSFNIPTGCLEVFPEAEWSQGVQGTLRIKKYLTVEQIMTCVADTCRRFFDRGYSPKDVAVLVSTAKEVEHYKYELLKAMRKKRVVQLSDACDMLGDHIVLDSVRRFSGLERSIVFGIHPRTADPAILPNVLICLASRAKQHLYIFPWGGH
# UniProt Q6ZSZ5: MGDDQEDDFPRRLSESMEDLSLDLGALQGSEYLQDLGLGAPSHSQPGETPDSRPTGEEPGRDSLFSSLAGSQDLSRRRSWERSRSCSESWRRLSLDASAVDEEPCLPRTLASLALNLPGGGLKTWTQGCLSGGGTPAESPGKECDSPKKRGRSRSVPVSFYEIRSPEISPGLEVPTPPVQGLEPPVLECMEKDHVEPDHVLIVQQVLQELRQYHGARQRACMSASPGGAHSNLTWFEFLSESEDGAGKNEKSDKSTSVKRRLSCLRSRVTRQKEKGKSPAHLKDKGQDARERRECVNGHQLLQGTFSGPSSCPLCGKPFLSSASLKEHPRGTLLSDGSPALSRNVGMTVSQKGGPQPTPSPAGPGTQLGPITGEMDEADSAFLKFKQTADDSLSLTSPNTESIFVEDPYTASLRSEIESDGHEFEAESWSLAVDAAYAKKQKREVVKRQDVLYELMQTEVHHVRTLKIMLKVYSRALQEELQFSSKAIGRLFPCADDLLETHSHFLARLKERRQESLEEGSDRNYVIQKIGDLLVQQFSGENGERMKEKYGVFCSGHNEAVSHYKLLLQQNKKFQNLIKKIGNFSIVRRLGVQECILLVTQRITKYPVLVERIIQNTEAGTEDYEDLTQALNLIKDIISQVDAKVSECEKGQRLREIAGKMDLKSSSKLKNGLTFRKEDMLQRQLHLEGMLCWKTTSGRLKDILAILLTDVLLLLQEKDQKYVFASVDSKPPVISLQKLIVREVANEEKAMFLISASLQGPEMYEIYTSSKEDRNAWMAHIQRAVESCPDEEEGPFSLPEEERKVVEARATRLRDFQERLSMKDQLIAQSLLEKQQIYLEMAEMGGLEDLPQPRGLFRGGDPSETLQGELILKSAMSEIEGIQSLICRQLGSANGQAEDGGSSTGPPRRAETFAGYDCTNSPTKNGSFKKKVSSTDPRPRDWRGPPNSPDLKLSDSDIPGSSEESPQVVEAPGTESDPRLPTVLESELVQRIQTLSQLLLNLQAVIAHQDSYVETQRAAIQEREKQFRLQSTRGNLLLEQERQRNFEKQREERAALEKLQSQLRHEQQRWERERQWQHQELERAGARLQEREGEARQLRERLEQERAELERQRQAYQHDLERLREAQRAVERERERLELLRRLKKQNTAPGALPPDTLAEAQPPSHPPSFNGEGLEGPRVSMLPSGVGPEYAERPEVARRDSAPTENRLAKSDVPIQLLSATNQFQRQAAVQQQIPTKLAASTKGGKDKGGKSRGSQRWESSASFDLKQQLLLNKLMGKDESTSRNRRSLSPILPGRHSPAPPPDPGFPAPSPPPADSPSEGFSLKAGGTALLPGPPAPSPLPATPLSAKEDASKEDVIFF
# UniProt Q7RTN6: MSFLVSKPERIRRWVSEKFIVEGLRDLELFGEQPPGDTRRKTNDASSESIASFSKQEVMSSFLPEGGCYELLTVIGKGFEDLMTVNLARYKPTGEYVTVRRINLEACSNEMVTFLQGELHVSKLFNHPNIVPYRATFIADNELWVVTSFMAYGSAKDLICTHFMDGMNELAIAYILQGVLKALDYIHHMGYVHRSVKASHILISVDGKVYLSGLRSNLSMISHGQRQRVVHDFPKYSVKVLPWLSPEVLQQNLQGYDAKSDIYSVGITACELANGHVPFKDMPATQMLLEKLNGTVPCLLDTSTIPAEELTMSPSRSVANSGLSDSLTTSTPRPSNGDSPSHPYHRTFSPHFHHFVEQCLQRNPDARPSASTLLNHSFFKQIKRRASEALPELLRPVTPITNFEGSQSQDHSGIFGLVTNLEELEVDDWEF
# UniProt Q6STE5, whole entry: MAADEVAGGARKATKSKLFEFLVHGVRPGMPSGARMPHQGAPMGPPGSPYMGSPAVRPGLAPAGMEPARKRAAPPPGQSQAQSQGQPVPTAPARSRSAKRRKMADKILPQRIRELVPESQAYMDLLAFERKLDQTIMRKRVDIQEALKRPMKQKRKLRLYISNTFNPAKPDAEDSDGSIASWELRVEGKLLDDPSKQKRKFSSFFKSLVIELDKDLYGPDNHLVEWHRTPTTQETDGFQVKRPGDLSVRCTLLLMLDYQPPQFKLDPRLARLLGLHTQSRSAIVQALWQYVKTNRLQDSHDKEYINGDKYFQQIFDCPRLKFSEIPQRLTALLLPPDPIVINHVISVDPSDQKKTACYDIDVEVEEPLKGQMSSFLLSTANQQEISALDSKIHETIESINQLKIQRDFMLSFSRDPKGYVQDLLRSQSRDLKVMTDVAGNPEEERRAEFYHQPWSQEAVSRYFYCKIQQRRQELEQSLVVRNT
# UniProt Q7Z7K6: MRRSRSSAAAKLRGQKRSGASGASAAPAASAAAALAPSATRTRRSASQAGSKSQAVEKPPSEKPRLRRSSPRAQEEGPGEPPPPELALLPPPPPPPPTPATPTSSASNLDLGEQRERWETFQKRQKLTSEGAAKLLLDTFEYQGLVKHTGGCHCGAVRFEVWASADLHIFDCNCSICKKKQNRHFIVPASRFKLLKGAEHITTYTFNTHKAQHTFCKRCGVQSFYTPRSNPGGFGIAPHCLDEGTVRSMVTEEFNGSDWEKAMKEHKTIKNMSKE
# UniProt Q86SE9: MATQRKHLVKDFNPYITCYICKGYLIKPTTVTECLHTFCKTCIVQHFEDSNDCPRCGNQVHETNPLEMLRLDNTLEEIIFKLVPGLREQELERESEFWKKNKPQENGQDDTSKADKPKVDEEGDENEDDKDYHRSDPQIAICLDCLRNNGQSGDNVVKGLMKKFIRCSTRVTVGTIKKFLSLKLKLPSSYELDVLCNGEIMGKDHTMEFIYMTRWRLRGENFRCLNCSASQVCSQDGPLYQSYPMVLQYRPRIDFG
# UniProt Q6PK18: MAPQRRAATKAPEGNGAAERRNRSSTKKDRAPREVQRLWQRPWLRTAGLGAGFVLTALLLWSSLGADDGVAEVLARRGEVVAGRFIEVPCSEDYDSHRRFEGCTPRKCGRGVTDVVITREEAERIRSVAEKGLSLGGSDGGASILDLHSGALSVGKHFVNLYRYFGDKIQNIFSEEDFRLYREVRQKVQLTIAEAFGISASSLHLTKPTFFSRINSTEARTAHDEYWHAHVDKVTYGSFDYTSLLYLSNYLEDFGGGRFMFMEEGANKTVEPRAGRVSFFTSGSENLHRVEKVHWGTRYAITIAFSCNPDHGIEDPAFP
# UniProt Q7Z5G4, whole entry: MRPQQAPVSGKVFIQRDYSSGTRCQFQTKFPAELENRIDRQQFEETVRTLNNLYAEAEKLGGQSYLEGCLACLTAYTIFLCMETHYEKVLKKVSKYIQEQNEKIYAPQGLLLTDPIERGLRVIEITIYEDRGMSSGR
# ± gives the standard deviation of the averaged measurements. The entries are a selection whose mix differs from that of the whole data set. Small differences around the control level are noise.
# Compound: Nc1ncnc2c1ncn2[C@@H]1O[C@H](COP(=O)(O)OP(=O)(O)OP(=O)(O)O)[C@@H](O)[C@H]1O [adenosine triphosphate]
# Assay: NP40-soluble protein abundance relative to vehicle (solubility fold change) (ratio); higher = more soluble protein in presence of ATP
# Method in brief: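 Jurkat crude lysate (Dounce-homogenised) was treated with eight concentrations from 0.1 to 10 mM for 10 min at room temperature, then 3 min at 37 °C. It was solubilised with 0.8% NP40 and benzonase (60 min, 4 °C) and ultracentrifuged, and the supernatant was TMT-labelled for LC-MS/MS. Intensities were vsn-normalised, and the value is the fold change against the NP40-processed vehicle per replicate, from three independent experiments.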
target,measurement,setting,value
TMED4 (UniProt Q7Z7H5),NP40-soluble protein abundance,concentration: 0.1mM,0.996 ± 0.051
same,NP40-soluble protein abundance,concentration: 0.5mM,1.01 ± 0.04
MON1B (UniProt Q7L1V2),NP40-soluble protein abundance,concentration: 0.1mM,0.973 ± 0.087
same,NP40-soluble protein abundance,concentration: 0.5mM,0.953 ± 0.12
UniProt Q6YP21 and related entries,NP40-soluble protein abundance,concentration: 0.1mM,1.06 ± 0.14
same,NP40-soluble protein abundance,concentration: 0.5mM,1.05 ± 0.078
UniProt Q6PI47,NP40-soluble protein abundance,concentration: 0.1mM,0.935 ± 0.041
same,NP40-soluble protein abundance,concentration: 0.5mM,0.76 ± 0.15
UniProt Q7LBC6,NP40-soluble protein abundance,concentration: 0.1mM,1.02 ± 0.02
same,NP40-soluble protein abundance,concentration: 0.5mM,1.02 ± 0.06
UniProt Q86UW6 and related entries,NP40-soluble protein abundance,concentration: 0.1mM,1.04 ± 0.046
same,NP40-soluble protein abundance,concentration: 0.5mM,1.062 ± 0.0076
UniProt Q6PJT7-3|Q6PJT7-5|Q6PJT7-9|Q6PJT7,NP40-soluble protein abundance,concentration: 0.1mM,1.057 ± 0.0065
same,NP40-soluble protein abundance,concentration: 0.5mM,1.16 ± 0.047
UniProt Q709C8 and related entries,NP40-soluble protein abundance,concentration: 0.1mM,1.05 ± 0.051
same,NP40-soluble protein abundance,concentration: 0.5mM,1.03 ± 0.038
UniProt Q86V59 and related entries,NP40-soluble protein abundance,concentration: 0.1mM,1.05 ± 0.13
same,NP40-soluble protein abundance,concentration: 0.5mM,1.07 ± 0.12
UniProt Q7Z4H7 and related entries,NP40-soluble protein abundance,concentration: 0.1mM,1.03 ± 0.013
same,NP40-soluble protein abundance,concentration: 0.5mM,1.02 ± 0.037
SLFN11 (UniProt Q7Z7L1),NP40-soluble protein abundance,concentration: 0.1mM,1.09 ± 0.064
same,NP40-soluble protein abundance,concentration: 0.5mM,1.09 ± 0.074
SESTD1 (UniProt Q86VW0),NP40-soluble protein abundance,concentration: 0.1mM,0.963 ± 0.13
same,NP40-soluble protein abundance,concentration: 0.5mM,1.01 ± 0.072
CYB5R4 (UniProt Q7L1T6),NP40-soluble protein abundance,concentration: 0.1mM,1.05 ± 0.064
same,NP40-soluble protein abundance,concentration: 0.5mM,1.07 ± 0.12
APBB1IP (UniProt Q7Z5R6),NP40-soluble protein abundance,concentration: 0.1mM,1.07 ± 0.092
same,NP40-soluble protein abundance,concentration: 0.5mM,0.995 ± 0.038
UniProt Q6ZSZ5,NP40-soluble protein abundance,concentration: 0.1mM,1.03 ± 0.022
same,NP40-soluble protein abundance,concentration: 0.5mM,1.02 ± 0.012
UniProt Q7RTN6 and related entries,NP40-soluble protein abundance,concentration: 0.1mM,0.967 ± 0.11
same,NP40-soluble protein abundance,concentration: 0.5mM,1.09 ± 0.08
UniProt Q71RC2 and related entries,NP40-soluble protein abundance,concentration: 0.1mM,1.03 ± 0.083
same,NP40-soluble protein abundance,concentration: 0.5mM,1.05 ± 0.053
UniProt Q70UQ0 and related entries,NP40-soluble protein abundance,concentration: 0.1mM,0.973 ± 0.14
same,NP40-soluble protein abundance,concentration: 0.5mM,0.915 ± 0.12
UniProt Q6ZMI0,NP40-soluble protein abundance,concentration: 0.1mM,0.992 ± 0.019
same,NP40-soluble protein abundance,concentration: 0.5mM,1 ± 0.065
UniProt Q7Z7H8 and related entries,NP40-soluble protein abundance,concentration: 0.1mM,0.991 ± 0.049
same,NP40-soluble protein abundance,concentration: 0.5mM,1.04 ± 0.038
UniProt Q6STE5 and related entries,NP40-soluble protein abundance,concentration: 0.1mM,1.07 ± 0.086
same,NP40-soluble protein abundance,concentration: 0.5mM,1.27 ± 0.19
UniProt Q7L1Q6,NP40-soluble protein abundance,concentration: 0.1mM,0.962 ± 0.029
same,NP40-soluble protein abundance,concentration: 0.5mM,0.994 ± 0.023
TTC33 (UniProt Q6PID6),NP40-soluble protein abundance,concentration: 0.1mM,0.958 ± 0.022
same,NP40-soluble protein abundance,concentration: 0.5mM,0.968 ± 0.015
UniProt Q7Z406 and related entries,NP40-soluble protein abundance,concentration: 0.1mM,0.966 ± 0.2
same,NP40-soluble protein abundance,concentration: 0.5mM,1.1 ± 0.044
UniProt Q8IUD2 and related entries,NP40-soluble protein abundance,concentration: 0.1mM,0.9932 ± 0.0082
same,NP40-soluble protein abundance,concentration: 0.5mM,1.008 ± 0.0043
same,NP40-soluble protein abundance,concentration: 1mM,0.979 ± 0.037
same,NP40-soluble protein abundance,concentration: 2mM,0.985 ± 0.025
same,NP40-soluble protein abundance,concentration: 4mM,0.997 ± 0.025
same,NP40-soluble protein abundance,concentration: 6mM,1.01 ± 0.014
same,NP40-soluble protein abundance,concentration: 8mM,0.988 ± 0.027
same,NP40-soluble protein abundance,concentration: 10mM,0.997 ± 0.025
UniProt Q86X95,NP40-soluble protein abundance,concentration: 0.1mM,1.02 ± 0.016
same,NP40-soluble protein abundance,concentration: 0.5mM,1 ± 0.045
same,NP40-soluble protein abundance,concentration: 1mM,0.964 ± 0.013
same,NP40-soluble protein abundance,concentration: 2mM,0.935 ± 0.061
same,NP40-soluble protein abundance,concentration: 4mM,0.9643 ± 0.008
same,NP40-soluble protein abundance,concentration: 6mM,0.949 ± 0.026
same,NP40-soluble protein abundance,concentration: 8mM,0.935 ± 0.0096
same,NP40-soluble protein abundance,concentration: 10mM,0.913 ± 0.02
UniProt Q86W42 and related entries,NP40-soluble protein abundance,concentration: 0.1mM,1.11 ± 0.033
same,NP40-soluble protein abundance,concentration: 0.5mM,1.41 ± 0.062
same,NP40-soluble protein abundance,concentration: 1mM,1.59 ± 0.18
same,NP40-soluble protein abundance,concentration: 2mM,1.69 ± 0.05
same,NP40-soluble protein abundance,concentration: 4mM,2 ± 0.087
same,NP40-soluble protein abundance,concentration: 6mM,2.16 ± 0.071
same,NP40-soluble protein abundance,concentration: 8mM,2.47 ± 0.094
same,NP40-soluble protein abundance,concentration: 10mM,2.55 ± 0.19
PAXIP1 (UniProt Q6ZW49),NP40-soluble protein abundance,concentration: 0.1mM,0.962 ± 0.071
same,NP40-soluble protein abundance,concentration: 0.5mM,0.99 ± 0.077
UniProt Q7LDG7 and related entries,NP40-soluble protein abundance,concentration: 0.1mM,0.983 ± 0.049
same,NP40-soluble protein abundance,concentration: 0.5mM,1.01 ± 0.071
UniProt Q7Z2T5,NP40-soluble protein abundance,concentration: 0.1mM,1.02 ± 0.046
same,NP40-soluble protein abundance,concentration: 0.5mM,1.06 ± 0.037
same,NP40-soluble protein abundance,concentration: 1mM,1.09 ± 0.05
same,NP40-soluble protein abundance,concentration: 2mM,1.16 ± 0.051
same,NP40-soluble protein abundance,concentration: 4mM,1.27 ± 0.013
same,NP40-soluble protein abundance,concentration: 6mM,1.39 ± 0.023
same,NP40-soluble protein abundance,concentration: 8mM,1.55 ± 0.018
same,NP40-soluble protein abundance,concentration: 10mM,1.69 ± 0.051
UniProt Q7Z7K6 and related entries,NP40-soluble protein abundance,concentration: 0.1mM,0.982 ± 0.1
same,NP40-soluble protein abundance,concentration: 0.5mM,1.01 ± 0.13
same,NP40-soluble protein abundance,concentration: 1mM,1.08 ± 0.058
same,NP40-soluble protein abundance,concentration: 2mM,1.14 ± 0.19
same,NP40-soluble protein abundance,concentration: 4mM,1.33 ± 0.14
same,NP40-soluble protein abundance,concentration: 6mM,1.47 ± 0.24
same,NP40-soluble protein abundance,concentration: 8mM,1.56 ± 0.23
same,NP40-soluble protein abundance,concentration: 10mM,2.03 ± 0.28
UniProt Q7L8W6,NP40-soluble protein abundance,concentration: 0.1mM,1.06 ± 0.093
same,NP40-soluble protein abundance,concentration: 0.5mM,1.09 ± 0.09
UniProt Q7L4P6 and related entries,NP40-soluble protein abundance,concentration: 0.1mM,1.1 ± 0.036
same,NP40-soluble protein abundance,concentration: 0.5mM,1.03 ± 0.075
same,NP40-soluble protein abundance,concentration: 1mM,0.995 ± 0.085
same,NP40-soluble protein abundance,concentration: 2mM,1.12 ± 0.2
same,NP40-soluble protein abundance,concentration: 4mM,1.23 ± 0.3
same,NP40-soluble protein abundance,concentration: 6mM,1.2 ± 0.21
same,NP40-soluble protein abundance,concentration: 8mM,1.02 ± 0.096
same,NP40-soluble protein abundance,concentration: 10mM,1.12 ± 0.14
PCGF5 (UniProt Q86SE9),NP40-soluble protein abundance,concentration: 0.1mM,0.927 ± 0.046
same,NP40-soluble protein abundance,concentration: 0.5mM,1 ± 0.057
same,NP40-soluble protein abundance,concentration: 1mM,0.922 ± 0.16
same,NP40-soluble protein abundance,concentration: 2mM,1.01 ± 0.056
same,NP40-soluble protein abundance,concentration: 4mM,0.981 ± 0.15
same,NP40-soluble protein abundance,concentration: 6mM,0.987 ± 0.087
same,NP40-soluble protein abundance,concentration: 8mM,0.954 ± 0.11
same,NP40-soluble protein abundance,concentration: 10mM,1.07 ± 0.037
MTDH (UniProt Q86UE4),NP40-soluble protein abundance,concentration: 0.1mM,1.01 ± 0.028
same,NP40-soluble protein abundance,concentration: 0.5mM,1.09 ± 0.028
UniProt Q6PK18 and related entries,NP40-soluble protein abundance,concentration: 0.1mM,1.04 ± 0.092
same,NP40-soluble protein abundance,concentration: 0.5mM,0.969 ± 0.059
same,NP40-soluble protein abundance,concentration: 1mM,1.06 ± 0.02
same,NP40-soluble protein abundance,concentration: 2mM,1.06 ± 0.061
same,NP40-soluble protein abundance,concentration: 4mM,0.955 ± 0.045
same,NP40-soluble protein abundance,concentration: 6mM,1.03 ± 0.074
same,NP40-soluble protein abundance,concentration: 8mM,1.09 ± 0.15
same,NP40-soluble protein abundance,concentration: 10mM,1.04 ± 0.024
UniProt Q86TV6 and related entries,NP40-soluble protein abundance,concentration: 0.1mM,0.935 ± 0.092
same,NP40-soluble protein abundance,concentration: 0.5mM,0.909 ± 0.13
UniProt Q70Z53,NP40-soluble protein abundance,concentration: 0.1mM,0.988 ± 0.046
same,NP40-soluble protein abundance,concentration: 0.5mM,0.99 ± 0.015
same,NP40-soluble protein abundance,concentration: 1mM,0.931 ± 0.015
same,NP40-soluble protein abundance,concentration: 2mM,0.927 ± 0.028
same,NP40-soluble protein abundance,concentration: 4mM,0.919 ± 0.011
same,NP40-soluble protein abundance,concentration: 6mM,0.922 ± 0.066
same,NP40-soluble protein abundance,concentration: 8mM,0.933 ± 0.058
same,NP40-soluble protein abundance,concentration: 10mM,0.936 ± 0.013
UniProt Q7Z5G4 and related entries,NP40-soluble protein abundance,concentration: 0.1mM,0.965 ± 0.035
same,NP40-soluble protein abundance,concentration: 0.5mM,0.939 ± 0.052
same,NP40-soluble protein abundance,concentration: 1mM,0.928 ± 0.02
same,NP40-soluble protein abundance,concentration: 2mM,0.914 ± 0.015
same,NP40-soluble protein abundance,concentration: 4mM,0.902 ± 0.019
same,NP40-soluble protein abundance,concentration: 6mM,0.885 ± 0.046
same,NP40-soluble protein abundance,concentration: 8mM,0.878 ± 0.014
same,NP40-soluble protein abundance,concentration: 10mM,0.897 ± 0.032

# Quoted from the listing (2 entries):
target,measurement,setting,value
MTDH (UniProt Q86UE4),NP40-soluble protein abundance,concentration: 0.5mM,1.09 ± 0.028
UniProt Q6PK18 and related entries,NP40-soluble protein abundance,concentration: 0.1mM,1.04 ± 0.092

# Reprinted at random: 3 records from the list.
target,measurement,setting,value
UniProt Q70Z53,NP40-soluble protein abundance,concentration: 0.5mM,0.99 ± 0.015
UniProt Q8IUD2 and related entries,NP40-soluble protein abundance,concentration: 2mM,0.985 ± 0.025
UniProt Q86X95,NP40-soluble protein abundance,concentration: 8mM,0.935 ± 0.0096

# Reformatted as tab-separated lines: part of the list above.
target	measurement	setting	value
UniProt Q7L8W6	NP40-soluble protein abundance	concentration: 0.5mM	1.09 ± 0.09
UniProt Q7L4P6 and related entries	NP40-soluble protein abundance	concentration: 0.1mM	1.1 ± 0.036
same	NP40-soluble protein abundance	concentration: 0.5mM	1.03 ± 0.075
same	NP40-soluble protein abundance	concentration: 1mM	0.995 ± 0.085
